Values from PubChem BioAssay AID1259424 (University of Nebraska Medical Center, 2018).

Screen: 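Seek colon cancer survival genes behaving like KSR1, using a six-gene signature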 (primary screen)
System: human HCT116 colon cancer cells
Reagent: siRNA pool against human genes, 50 nM
Read-out: 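Log2 levels of six mRNAs (branched-DNA multiplex), adjusted by two reference genes and the non-targeting median, then scored against the average KSR1 knockdown pattern as Pearson r and euclidean distance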
Scale: mean correlation with KSR1 profile and KSR1 correlation: higher = expression change more like KSR1 knockdown; mean distance from KSR1 profile: higher = expression change less like KSR1 knockdown
This is a random part of about 14,000 reagents. 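Higher correlation or smaller distance means closer resemblance to KSR1 loss; control wells, including KSR1 knockdowns, recur on many plates.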 A reagent listed more than once was tested more than once; the source does not tell the runs apart. The record does not give: the time to read-out.

| target | mean correlation with KSR1 profile | mean distance from KSR1 profile | KSR1 correlation, replicate 1 | KSR1 correlation, replicate 2 | KSR1 correlation, replicate 3 |
| --- | --- | --- | --- | --- | --- |
| RAB3A (RAB3A, member RAS oncogene family) | -0.421 | 1.15 | -0.36 | -0.564 | -0.171 |
| GCC2 (GRIP and coiled-coil domain containing 2) | 0.0578 | 1.62 | -0.0669 | 0.634 | 0.333 |
| CENPF (centromere protein F) | -0.311 | 2.67 | -0.252 | -0.341 | -0.409 |
| SAMD4B (sterile alpha motif domain containing 4B) | 0.116 | 2.17 | -0.0233 | -0.126 | 0.266 |
| CCR5 (C-C motif chemokine receptor 5) | 0.412 | 2.04 | 0.432 | 0.465 | 0.236 |
| APOBEC2 (apolipoprotein B mRNA editing enzyme catalytic subunit 2) | -0.102 | 2.8 | -0.0164 | -0.213 | -0.201 |
| P2RY1 (purinergic receptor P2Y1) | 0.585 | 1.74 | 0.654 | 0.691 | 0.607 |
| XAB2 (XPA binding protein 2) | 0.305 | 5.02 | 0.18 | 0.37 | -0.418 |
| TGIF2LY (TGFB induced factor homeobox 2 like Y-linked) | 0.234 | 1.54 | 0.352 | 0.518 | 0.141 |
| B3GALT4 (beta-1,3-galactosyltransferase 4) | -0.382 | 2.7 | -0.272 | -0.266 | -0.595 |
| MYD88 (MYD88 innate immune signal transduction adaptor) | -0.0431 | 1.79 | 0.02 | -0.0327 | -0.0608 |
| FEM1B (fem-1 homolog B) | 0.0803 | 1.61 | 0.0228 | 0.0159 | 0.288 |
| LGALS1 (galectin 1) | 0.289 | 2.87 | 0.352 | 0.135 | 0.289 |
| SUPT16H (SPT16 homolog, facilitates chromatin remodeling subunit) | -0.779 | 1.24 | -0.314 | -0.464 | -0.685 |
| LY86 (lymphocyte antigen 86) | -0.347 | 2.04 | -0.495 | -0.366 | -0.116 |
| GPR87 (G protein-coupled receptor 87) | 0.274 | 2.13 | 0.34 | 0.426 | -0.0653 |
| BDKRB2 (bradykinin receptor B2) | 0.722 | 1.28 | 0.73 | 0.677 | 0.727 |
| BDKRB2 (bradykinin receptor B2) | 0.48 | 1.46 | 0.573 | 0.517 | 0.134 |
| FOLH1B (folate hydrolase 1B (pseudogene)) | 0.304 | 2.04 | 0.309 | 0.309 | 0.291 |
| TLR8 (toll like receptor 8) | 0.679 | 1.43 | 0.777 | 0.492 | 0.639 |
| RNF39 (ring finger protein 39) | 0.588 | 1.67 | 0.503 | 0.464 | 0.634 |
| ICOSLG (inducible T cell costimulator ligand) | -0.228 | 3.22 | -0.337 | -0.211 | -0.232 |
| SFTPA2B (retired record) | -0.0268 | 1.95 | -0.147 | -0.128 | 0.261 |
| DDX11 (DEAD/H-box helicase 11) | 0.202 | 1.03 | 0.414 | 0.274 | -0.216 |
| PCDH1 (protocadherin 1) | 0.381 | 1.84 | 0.139 | 0.484 | -0.016 |
| H2BC11 (H2B clustered histone 11) | -0.685 | 1.36 | -0.426 | -0.323 | -0.793 |
| SELENOS (selenoprotein S) | -0.339 | 1.76 | -0.076 | -0.759 | -0.0598 |
| LMAN1L (lectin, mannose binding 1 like) | 0.0541 | 2.92 | 0.0911 | 0.316 | -0.348 |
| NFKBIB (NFKB inhibitor beta) | -0.199 | 1.63 | 0.0951 | -0.17 | -0.299 |
| FXN (frataxin) | 0.362 | 1.34 | 0.11 | 0.0159 | 0.631 |
| UCP3 (uncoupling protein 3) | -0.581 | 3.79 | -0.681 | -0.578 | -0.574 |
| KCNB1 (potassium voltage-gated channel subfamily B member 1) | -0.0355 | 1.9 | 0.179 | -0.346 | -0.367 |
| NDEL1 (nudE neurodevelopment protein 1 like 1) | -0.347 | 2.14 | -0.518 | 0.146 | -0.561 |
| TAF6L (TATA-box binding protein associated factor 6 like) | 0.029 | 3.11 | 0.103 | 0.254 | 0.0203 |
| TMED5 (transmembrane p24 trafficking protein 5) | -0.214 | 3.5 | -0.145 | -0.221 | -0.0325 |
| FAM135A (family with sequence similarity 135 member A) | 0.119 | 1.57 | 0.264 | 0.147 | -0.0374 |
| GAGE4 (G antigen 4) | -0.0712 | 1.95 | -0.265 | -0.0984 | 0.0157 |
| HNRNPUL1 (heterogeneous nuclear ribonucleoprotein U like 1) | 0.0056 | 3.81 | 0.566 | -0.205 | -0.274 |
| KRT32 (keratin 32) | -0.461 | 1.49 | -0.704 | -0.22 | -0.174 |
| MEF2C (myocyte enhancer factor 2C) | -0.00209 | 2.18 | 0.379 | 0.286 | -0.287 |
| CHRNA7 (cholinergic receptor nicotinic alpha 7 subunit) | 0.341 | 3.62 | 0.502 | 0.178 | 0.21 |
| HOXD12 (homeobox D12) | 0.641 | 1.14 | 0.71 | 0.728 | 0.314 |
| MPI (mannose phosphate isomerase) | 0.0207 | 1.8 | 0.0915 | 0.1 | -0.362 |
| SYN1 (synapsin I) | -0.338 | 1.58 | -0.514 | -0.522 | -0.0422 |
| IDI2-AS1 (IDI2 antisense RNA 1) | -0.332 | 3.31 | -0.64 | -0.604 | 0.0606 |
| QSOX1 (quiescin sulfhydryl oxidase 1) | -0.207 | 1.8 | -0.149 | -0.202 | -0.323 |
| WSCD1 (WSC domain sialate O sulfotransferase 1) | -0.132 | 1.51 | -0.181 | -0.0729 | -0.293 |
| KCNJ5 (potassium inwardly rectifying channel subfamily J member 5) | 0.418 | 3.02 | 0.386 | 0.563 | 0.242 |
| H2BC21 (H2B clustered histone 21) | 0.0263 | 3.44 | 0.148 | 0.108 | 0.07 |
| EPPIN (epididymal peptidase inhibitor) | -0.536 | 1.56 | -0.496 | -0.475 | -0.146 |

In a second layout: 6 of the entries above
LGALS1 (galectin 1) → mean correlation with KSR1 profile = 0.289; mean distance from KSR1 profile = 2.87; KSR1 correlation, replicate 1 = 0.352; KSR1 correlation, replicate 2 = 0.135; KSR1 correlation, replicate 3 = 0.289
SUPT16H (SPT16 homolog, facilitates chromatin remodeling subunit) → mean correlation with KSR1 profile = -0.779; mean distance from KSR1 profile = 1.24; KSR1 correlation, replicate 1 = -0.314; KSR1 correlation, replicate 2 = -0.464; KSR1 correlation, replicate 3 = -0.685
LY86 (lymphocyte antigen 86) → mean correlation with KSR1 profile = -0.347; mean distance from KSR1 profile = 2.04; KSR1 correlation, replicate 1 = -0.495; KSR1 correlation, replicate 2 = -0.366; KSR1 correlation, replicate 3 = -0.116
GPR87 (G protein-coupled receptor 87) → mean correlation with KSR1 profile = 0.274; mean distance from KSR1 profile = 2.13; KSR1 correlation, replicate 1 = 0.34; KSR1 correlation, replicate 2 = 0.426; KSR1 correlation, replicate 3 = -0.0653
BDKRB2 (bradykinin receptor B2) → mean correlation with KSR1 profile = 0.722; mean distance from KSR1 profile = 1.28; KSR1 correlation, replicate 1 = 0.73; KSR1 correlation, replicate 2 = 0.677; KSR1 correlation, replicate 3 = 0.727
BDKRB2 (bradykinin receptor B2) → mean correlation with KSR1 profile = 0.48; mean distance from KSR1 profile = 1.46; KSR1 correlation, replicate 1 = 0.573; KSR1 correlation, replicate 2 = 0.517; KSR1 correlation, replicate 3 = 0.134
